Experimental data reported in the supplement of paper PMC12819154, “High-throughput peptide-centric local stability assay extends protein–ligand identification to membrane proteins, tissues and bacteria” (Nature Structural & Molecular Biology, 2025).
The list shows a part of the results. Most entries show no effect beyond the scatter of the controls.

Protein sequences, listed by entry. Tags and fused reporters are not part of them. Lines headed by an entry give the natural chain unless they say otherwise; changes in a name come on top.
UniProt Q9NWS6: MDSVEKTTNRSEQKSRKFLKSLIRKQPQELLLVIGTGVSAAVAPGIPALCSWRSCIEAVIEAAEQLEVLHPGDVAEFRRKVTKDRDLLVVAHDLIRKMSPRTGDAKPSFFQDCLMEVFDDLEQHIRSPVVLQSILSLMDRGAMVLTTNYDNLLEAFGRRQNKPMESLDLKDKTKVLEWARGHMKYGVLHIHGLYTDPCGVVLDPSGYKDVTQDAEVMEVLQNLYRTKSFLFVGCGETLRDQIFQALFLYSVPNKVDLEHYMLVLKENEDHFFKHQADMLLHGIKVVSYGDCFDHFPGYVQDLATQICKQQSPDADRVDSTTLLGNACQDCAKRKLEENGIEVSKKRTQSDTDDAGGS
UniProt Q9NRL2: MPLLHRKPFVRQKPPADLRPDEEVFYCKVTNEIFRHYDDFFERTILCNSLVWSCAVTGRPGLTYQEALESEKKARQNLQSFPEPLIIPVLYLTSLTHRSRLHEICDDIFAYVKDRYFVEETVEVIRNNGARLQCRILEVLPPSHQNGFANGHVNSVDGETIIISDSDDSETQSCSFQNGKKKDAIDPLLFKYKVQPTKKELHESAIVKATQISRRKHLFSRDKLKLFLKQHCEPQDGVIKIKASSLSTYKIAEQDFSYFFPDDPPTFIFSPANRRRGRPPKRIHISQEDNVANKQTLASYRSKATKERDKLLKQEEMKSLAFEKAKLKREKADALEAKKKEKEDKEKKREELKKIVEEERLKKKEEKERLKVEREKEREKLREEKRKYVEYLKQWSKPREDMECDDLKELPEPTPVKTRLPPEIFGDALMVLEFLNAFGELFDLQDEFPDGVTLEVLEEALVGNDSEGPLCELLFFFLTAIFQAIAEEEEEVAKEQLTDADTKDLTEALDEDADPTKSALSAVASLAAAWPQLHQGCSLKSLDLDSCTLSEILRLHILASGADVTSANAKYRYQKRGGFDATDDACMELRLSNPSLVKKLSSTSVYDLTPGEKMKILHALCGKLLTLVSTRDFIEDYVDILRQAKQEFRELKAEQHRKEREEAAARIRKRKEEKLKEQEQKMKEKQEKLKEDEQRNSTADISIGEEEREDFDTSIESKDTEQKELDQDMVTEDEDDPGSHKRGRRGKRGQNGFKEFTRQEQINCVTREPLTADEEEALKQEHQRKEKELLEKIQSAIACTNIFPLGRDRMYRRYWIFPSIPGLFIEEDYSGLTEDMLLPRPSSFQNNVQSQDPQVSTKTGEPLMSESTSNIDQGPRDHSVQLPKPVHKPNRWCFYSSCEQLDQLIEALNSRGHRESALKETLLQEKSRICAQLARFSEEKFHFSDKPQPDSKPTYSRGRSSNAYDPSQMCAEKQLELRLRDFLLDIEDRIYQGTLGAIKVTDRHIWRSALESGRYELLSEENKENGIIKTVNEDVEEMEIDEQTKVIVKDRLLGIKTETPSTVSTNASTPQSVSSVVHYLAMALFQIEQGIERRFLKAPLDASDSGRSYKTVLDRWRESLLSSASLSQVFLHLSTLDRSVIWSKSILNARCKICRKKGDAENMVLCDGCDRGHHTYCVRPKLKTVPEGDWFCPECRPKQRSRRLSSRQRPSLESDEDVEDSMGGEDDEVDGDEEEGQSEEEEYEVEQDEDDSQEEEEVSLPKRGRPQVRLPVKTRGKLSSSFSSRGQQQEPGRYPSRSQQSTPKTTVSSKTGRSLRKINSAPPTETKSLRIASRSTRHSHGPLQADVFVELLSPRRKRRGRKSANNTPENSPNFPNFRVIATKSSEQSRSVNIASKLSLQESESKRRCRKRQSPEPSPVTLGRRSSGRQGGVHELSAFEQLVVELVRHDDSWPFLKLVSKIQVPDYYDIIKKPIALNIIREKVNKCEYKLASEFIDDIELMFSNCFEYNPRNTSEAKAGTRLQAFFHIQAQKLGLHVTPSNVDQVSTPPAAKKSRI
UniProt Q9NXU5: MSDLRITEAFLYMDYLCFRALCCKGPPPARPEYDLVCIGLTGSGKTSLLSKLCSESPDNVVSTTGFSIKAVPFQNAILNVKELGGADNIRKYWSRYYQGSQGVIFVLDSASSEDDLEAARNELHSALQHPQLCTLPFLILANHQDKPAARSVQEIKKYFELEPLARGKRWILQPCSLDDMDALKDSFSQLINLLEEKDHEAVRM
UniProt Q9NXV2: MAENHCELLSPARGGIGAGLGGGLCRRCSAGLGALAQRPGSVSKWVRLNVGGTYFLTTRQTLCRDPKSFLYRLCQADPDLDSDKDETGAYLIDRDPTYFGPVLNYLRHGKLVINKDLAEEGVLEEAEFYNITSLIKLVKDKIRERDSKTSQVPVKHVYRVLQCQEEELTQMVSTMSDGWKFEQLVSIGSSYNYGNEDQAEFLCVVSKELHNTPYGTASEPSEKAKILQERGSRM
UniProt Q9NVA2: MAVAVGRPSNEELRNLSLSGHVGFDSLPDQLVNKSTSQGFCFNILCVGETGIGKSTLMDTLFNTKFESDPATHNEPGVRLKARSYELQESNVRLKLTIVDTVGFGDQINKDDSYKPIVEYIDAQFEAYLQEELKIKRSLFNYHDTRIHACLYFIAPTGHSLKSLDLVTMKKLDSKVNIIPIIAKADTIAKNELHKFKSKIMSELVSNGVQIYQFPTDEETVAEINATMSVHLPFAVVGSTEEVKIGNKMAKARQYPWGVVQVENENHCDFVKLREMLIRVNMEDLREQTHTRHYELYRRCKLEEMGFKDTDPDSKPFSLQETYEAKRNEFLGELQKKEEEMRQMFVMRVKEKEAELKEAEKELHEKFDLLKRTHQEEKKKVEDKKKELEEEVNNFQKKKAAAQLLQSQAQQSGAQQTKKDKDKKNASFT
UniProt Q9NQS7, whole entry: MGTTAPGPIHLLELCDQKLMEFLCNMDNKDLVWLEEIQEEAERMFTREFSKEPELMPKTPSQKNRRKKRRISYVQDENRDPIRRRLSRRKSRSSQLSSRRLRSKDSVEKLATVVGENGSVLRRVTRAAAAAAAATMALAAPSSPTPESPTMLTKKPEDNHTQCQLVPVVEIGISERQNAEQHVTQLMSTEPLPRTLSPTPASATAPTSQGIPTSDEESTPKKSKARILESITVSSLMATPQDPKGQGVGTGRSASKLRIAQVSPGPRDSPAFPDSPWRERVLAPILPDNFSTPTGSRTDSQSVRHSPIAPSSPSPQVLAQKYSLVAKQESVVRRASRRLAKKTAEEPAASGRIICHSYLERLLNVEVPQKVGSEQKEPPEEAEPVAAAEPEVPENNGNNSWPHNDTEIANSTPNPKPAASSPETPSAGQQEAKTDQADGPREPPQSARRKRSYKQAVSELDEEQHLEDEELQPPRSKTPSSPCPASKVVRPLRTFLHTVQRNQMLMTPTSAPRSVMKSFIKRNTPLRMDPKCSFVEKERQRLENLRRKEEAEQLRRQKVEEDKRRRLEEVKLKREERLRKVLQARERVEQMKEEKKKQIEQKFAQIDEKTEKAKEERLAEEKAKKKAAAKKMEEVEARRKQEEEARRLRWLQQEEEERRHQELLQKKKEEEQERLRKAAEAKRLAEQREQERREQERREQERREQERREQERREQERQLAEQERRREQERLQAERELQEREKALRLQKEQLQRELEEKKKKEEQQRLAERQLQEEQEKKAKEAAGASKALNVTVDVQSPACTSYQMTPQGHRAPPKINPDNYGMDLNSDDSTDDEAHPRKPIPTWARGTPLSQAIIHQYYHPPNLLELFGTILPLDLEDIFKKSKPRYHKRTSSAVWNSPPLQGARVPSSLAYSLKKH
UniProt Q9NZ09: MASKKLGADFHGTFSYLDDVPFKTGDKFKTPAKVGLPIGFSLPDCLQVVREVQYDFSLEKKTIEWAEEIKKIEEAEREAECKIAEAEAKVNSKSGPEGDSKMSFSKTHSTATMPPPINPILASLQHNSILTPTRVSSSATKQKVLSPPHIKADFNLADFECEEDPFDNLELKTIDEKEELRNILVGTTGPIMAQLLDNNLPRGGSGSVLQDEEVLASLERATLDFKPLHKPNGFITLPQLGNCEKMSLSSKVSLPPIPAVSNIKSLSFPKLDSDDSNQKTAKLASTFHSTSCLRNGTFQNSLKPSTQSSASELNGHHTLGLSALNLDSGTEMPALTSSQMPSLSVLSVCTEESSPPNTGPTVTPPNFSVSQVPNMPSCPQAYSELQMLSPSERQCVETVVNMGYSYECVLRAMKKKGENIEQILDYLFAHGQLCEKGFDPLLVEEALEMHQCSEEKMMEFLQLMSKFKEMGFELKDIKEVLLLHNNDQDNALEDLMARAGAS
UniProt Q9NXF1: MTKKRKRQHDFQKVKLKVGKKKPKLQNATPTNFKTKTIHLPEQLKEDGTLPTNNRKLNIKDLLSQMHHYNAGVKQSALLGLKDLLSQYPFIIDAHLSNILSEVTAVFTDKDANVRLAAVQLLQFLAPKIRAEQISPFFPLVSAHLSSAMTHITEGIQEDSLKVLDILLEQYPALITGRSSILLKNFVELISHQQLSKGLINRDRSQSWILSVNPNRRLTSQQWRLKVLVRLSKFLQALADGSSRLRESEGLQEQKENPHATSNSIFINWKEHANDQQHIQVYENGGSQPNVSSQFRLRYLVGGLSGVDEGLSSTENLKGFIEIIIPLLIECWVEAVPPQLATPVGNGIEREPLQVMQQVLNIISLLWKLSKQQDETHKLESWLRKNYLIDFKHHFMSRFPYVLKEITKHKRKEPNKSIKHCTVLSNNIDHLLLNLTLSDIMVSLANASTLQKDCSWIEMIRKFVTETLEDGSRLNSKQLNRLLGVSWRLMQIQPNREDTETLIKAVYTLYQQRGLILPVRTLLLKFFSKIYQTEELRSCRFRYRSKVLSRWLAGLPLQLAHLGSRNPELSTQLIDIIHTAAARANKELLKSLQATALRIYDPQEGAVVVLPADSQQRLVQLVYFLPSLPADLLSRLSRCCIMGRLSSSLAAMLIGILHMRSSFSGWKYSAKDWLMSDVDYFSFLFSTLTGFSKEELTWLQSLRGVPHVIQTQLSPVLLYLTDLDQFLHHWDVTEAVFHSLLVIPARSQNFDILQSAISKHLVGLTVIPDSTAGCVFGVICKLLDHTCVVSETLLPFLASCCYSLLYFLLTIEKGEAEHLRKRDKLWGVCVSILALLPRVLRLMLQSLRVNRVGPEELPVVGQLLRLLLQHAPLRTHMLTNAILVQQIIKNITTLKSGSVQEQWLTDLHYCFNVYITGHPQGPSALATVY
UniProt Q9NX31: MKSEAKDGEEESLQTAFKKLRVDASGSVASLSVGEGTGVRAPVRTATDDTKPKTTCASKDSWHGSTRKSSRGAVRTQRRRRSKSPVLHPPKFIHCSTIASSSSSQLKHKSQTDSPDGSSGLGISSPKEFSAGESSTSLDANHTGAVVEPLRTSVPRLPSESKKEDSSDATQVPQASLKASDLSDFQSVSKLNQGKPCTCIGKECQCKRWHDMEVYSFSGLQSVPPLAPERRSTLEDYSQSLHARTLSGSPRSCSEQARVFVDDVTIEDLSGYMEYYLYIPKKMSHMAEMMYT
UniProt Q9NR28: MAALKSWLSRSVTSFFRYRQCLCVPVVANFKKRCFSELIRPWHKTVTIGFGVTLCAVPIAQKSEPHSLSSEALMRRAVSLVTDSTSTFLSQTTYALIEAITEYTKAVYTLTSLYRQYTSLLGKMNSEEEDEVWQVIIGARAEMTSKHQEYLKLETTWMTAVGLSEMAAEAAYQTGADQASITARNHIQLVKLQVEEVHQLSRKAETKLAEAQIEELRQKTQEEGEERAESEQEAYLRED
UniProt Q9NRD5, whole entry: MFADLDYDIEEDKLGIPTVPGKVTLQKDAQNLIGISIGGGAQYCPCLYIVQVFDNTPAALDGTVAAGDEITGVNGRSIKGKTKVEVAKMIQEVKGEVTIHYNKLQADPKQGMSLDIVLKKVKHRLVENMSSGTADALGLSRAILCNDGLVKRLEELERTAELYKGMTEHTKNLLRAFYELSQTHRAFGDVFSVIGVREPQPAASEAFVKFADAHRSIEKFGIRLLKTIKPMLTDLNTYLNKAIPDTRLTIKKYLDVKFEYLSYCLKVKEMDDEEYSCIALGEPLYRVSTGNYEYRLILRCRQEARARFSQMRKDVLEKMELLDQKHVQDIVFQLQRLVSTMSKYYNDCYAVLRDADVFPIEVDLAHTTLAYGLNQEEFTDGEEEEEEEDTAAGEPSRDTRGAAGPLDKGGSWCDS
UniProt Q9NQT5, whole entry: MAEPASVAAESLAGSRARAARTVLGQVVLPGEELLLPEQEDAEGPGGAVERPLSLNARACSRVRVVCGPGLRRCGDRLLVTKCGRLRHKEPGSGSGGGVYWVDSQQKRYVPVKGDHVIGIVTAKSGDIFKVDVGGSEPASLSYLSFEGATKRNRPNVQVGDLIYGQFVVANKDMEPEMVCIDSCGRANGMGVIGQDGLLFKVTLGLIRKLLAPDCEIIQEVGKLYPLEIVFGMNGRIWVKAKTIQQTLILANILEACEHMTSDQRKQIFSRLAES
UniProt Q9NS18: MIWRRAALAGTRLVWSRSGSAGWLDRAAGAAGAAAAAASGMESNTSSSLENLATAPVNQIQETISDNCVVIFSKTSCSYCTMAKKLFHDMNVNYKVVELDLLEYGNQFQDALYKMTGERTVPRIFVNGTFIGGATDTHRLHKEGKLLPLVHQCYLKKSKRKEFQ

These targets were tested with CN[C@@H]1C[C@H]2O[C@@](C)([C@@H]1OC)n1c3ccccc3c3c4c(c5c6ccccc6n2c5c31)C(=O)NC4 [staurosporine] (assay: log2 fold change of tryptic peptide abundance, ligand vs vehicle (limited proteolysis) (log2 ratio); higher = more trypsin-susceptible (destabilized)). Conditions: ligand concentration: 20 uM; sample: K562 cleared lysate; digestion: 4 min, 22 C (HT-PELSA RT4min, Orbitrap Astral).
Target “UniProt Q9NRR4 (peptide sequence: NTDSWAPPLEIVNHR, peptide start residue: 340)” has a log2 fold change of 0.347.
Target “STAU2 (peptide sequence: KEKEPDYVLLSER, peptide start residue: 320) (UniProt Q9NUL3)” has a log2 fold change of 0.211.
“FAM118A (peptide sequence: DRDLLVVAHDLIRK, peptide start residue: 84) (UniProt Q9NWS6)” gave a log2 fold change of 0.786.
“UniProt Q9NWU2 (peptide sequence: LIMNYLVTEGFKEAAEKFR, peptide start residue: 32)” showed a log2 fold change of 0.403.
Work on “BAZ1A (peptide sequence: HSHGPLQADVFVELLSPR, peptide start residue: 1338) (UniProt Q9NRL2)” yielded a log2 fold change of -0.318.
“UniProt Q9NYD6 (peptide sequence: EFLFNMYLTR, peptide start residue: 203)” was tested, and the log2 fold change was 0.561.
“TUBA8 (peptide sequence: NLDIERPTYTNLNR, peptide start residue: 216) (UniProt Q9NY65)” showed a log2 fold change of -0.0996.
“MRPL22 (peptide sequence: EYIQQLR, peptide start residue: 192) (UniProt Q9NWU5)” showed a log2 fold change of -0.195.
In the case of “MTPAP (peptide sequence: TVLIHCPEKISENK, peptide start residue: 77) (UniProt Q9NVV4)”, the log2 fold change is reported as 0.339.
Work on “METTL5 (peptide sequence: KSVDIEVDLIRFSF, peptide start residue: 196) (UniProt Q9NRN9)” yielded a log2 fold change of 0.274.
“UniProt Q9NWL6 (peptide sequence: SDVNYQCLFSAHVLHLR, peptide start residue: 41)” was tested, and the log2 fold change was 0.288.
Work on “ARL15 (peptide sequence: AVPFQNAILNVK, peptide start residue: 70) (UniProt Q9NXU5)” yielded a log2 fold change of -0.0948.
With “TDP1 (peptide sequence: FSNTDSVLPPKR, peptide start residue: 65) (UniProt Q9NUW8)” the log2 fold change was -0.292.
Target “UniProt Q9NUJ3 (peptide sequence: HALPVGGMAAGSGDMPR, peptide start residue: 282)” has a log2 fold change of 0.00836.
Target “SAR1A (peptide sequence: EIFGLYGQTTGKGNVTLK, peptide start residue: 149) (UniProt Q9NR31)” has a log2 fold change of -0.757.
“KCTD5 (peptide sequence: GGIGAGLGGGLCR, peptide start residue: 14) (UniProt Q9NXV2)” showed a log2 fold change of -0.078.
Work on “UniProt Q9NVA1 (peptide sequence: VMGVNPYILKK, peptide start residue: 189)” yielded a log2 fold change of -0.787.
For “UniProt Q9NVA2 (peptide sequence: IHACLYFIAPTGHSLK, peptide start residue: 147)”, the log2 fold change was -0.425.
With “FKBP14 (peptide sequence: SHESFQEMDLNDDWK, peptide start residue: 140) (UniProt Q9NWM8)” the log2 fold change was -0.234.
Work on “INCENP (peptide sequence: LLNVEVPQK, peptide start residue: 362) (UniProt Q9NQS7)” yielded a log2 fold change of -0.314.
For “UBAP1 (peptide sequence: EVQYDFSLEKK, peptide start residue: 51) (UniProt Q9NZ09)”, the log2 fold change was -0.457.
In the case of “UniProt Q9NYP9 (peptide sequence: CSDSSLLGKR, peptide start residue: 25)”, the log2 fold change is reported as 0.431.
Target “DDX19A (peptide sequence: VKADTNGIIK, peptide start residue: 30) (UniProt Q9NUU7)” has a log2 fold change of -0.106.
Target “MRPL16 (peptide sequence: IATANMLGIR, peptide start residue: 218) (UniProt Q9NX20)” has a log2 fold change of 0.149.
With “ZBTB40 (peptide sequence: VREESLDVQTVVSLLR, peptide start residue: 299) (UniProt Q9NUA8)” the log2 fold change was 0.39.
“COMMD8 (peptide sequence: MPLLSLHLDVK, peptide start residue: 138) (UniProt Q9NX08)” showed a log2 fold change of -0.0125.
For “TEX10 (peptide sequence: LTSQQWR, peptide start residue: 218) (UniProt Q9NXF1)”, the log2 fold change was 0.45.
Work on “UniProt Q9NX31 (peptide sequence: FIHCSTIASSSSSQLK, peptide start residue: 92)” yielded a log2 fold change of 0.163.
“DIABLO (peptide sequence: AESEQEAYLRED, peptide start residue: 228) (UniProt Q9NR28)” gave a log2 fold change of -0.434.
For “ASB6 (peptide sequence: LQLPENFDIHPVGSLAEK, peptide start residue: 340) (UniProt Q9NWX5)”, the log2 fold change was 0.239.
In the case of “PICK1 (peptide sequence: AILCNDGLVKR, peptide start residue: 142) (UniProt Q9NRD5)”, the log2 fold change is reported as -0.857.
For “VPS45 (peptide sequence: LVMLYALHYER, peptide start residue: 387) (UniProt Q9NRW7)”, the log2 fold change was 0.432.
In the case of “EXOSC3 (peptide sequence: HKEPGSGSGGGVYWVDSQQK, peptide start residue: 88) (UniProt Q9NQT5)”, the log2 fold change is reported as -0.474.
Work on “CMTM6 (peptide sequence: AEALTEPLNA, peptide start residue: 174) (UniProt Q9NX76)” yielded a log2 fold change of -0.042.
Target “GLRX2 (peptide sequence: IFVNGTFIGGATDTHR, peptide start residue: 124) (UniProt Q9NS18)” has a log2 fold change of -0.226.
Work on “NKIRAS2 (peptide sequence: LWEVSVADRR, peptide start residue: 146) (UniProt Q9NYR9)” yielded a log2 fold change of 0.819.
